PubChem BioAssay AID1224827 | NIAID | 2016
The whole screen tested about 3,800 reagents; shown is a part drawn at random. Over the whole deposit, about 2,200 (57%) got an active call. 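Active means a strong reporter change in either direction; calls are per siRNA, not per gene; qiagen siRNAs gave weaker effects.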 Reagents against one gene are numbered here. Further read-outs or replicates are left out here.

Screen: 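Confirm genes whose knock-down changes LPS-driven TNF promoter activity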 (follow-up of hits)
System: RAW264.7 G9 mouse macrophage reporter clone
Reagent: single siRNA against mouse genes, 100 nM siRNA
Time to read-out: siRNA for 2 days, then LPS about 16 h
Conditions: bacterial lipopolysaccharide (LPS), 10 ng/ml, cells fixed after overnight (about 16 h) stimulation
Measured: 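Imaged nuclear TNF reporter intensity, background removed, scaled per plate and to non-targeting control wells, as z-scores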
Scale: TNF reporter z-score, mean: higher = stronger Tnf promoter reporter signal; gene median z, three same-vendor siRNAs: higher = stronger Tnf reporter signal for the gene
Hit rule: 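An siRNA is called active when its mean z-score over replicates is at least +2 or at most -2; control wells get no call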

gene symbol | reagent no. | TNF reporter z-score, mean | gene median z, three same-vendor siRNAs | Call
Moap1 (modulator of apoptosis 1) | 1 | -0.565 | -3.1 | inactive
Moap1 (modulator of apoptosis 1) | 2 | -3.89 | -3.1 | active
Moap1 (modulator of apoptosis 1) | 3 | -3.62 | -3.1 | active
Moap1 (modulator of apoptosis 1) | 4 | 3.06 | 0.917 | active
Moap1 (modulator of apoptosis 1) | 5 | 2.37 | 0.917 | active
Moap1 (modulator of apoptosis 1) | 6 | -0.713 | 0.917 | inactive
Flvcr1 (feline leukemia virus subgroup C cellular receptor 1) | 1 | 5.02 | 2.1 | active
Flvcr1 (feline leukemia virus subgroup C cellular receptor 1) | 2 | 3.7 | 2.1 | active
Flvcr1 (feline leukemia virus subgroup C cellular receptor 1) | 3 | 0.0338 | 2.1 | inactive
Syn2 (synapsin II) | 1 | 4.2 | -2.86 | active
Syn2 (synapsin II) | 2 | -2.86 | -2.86 | active
Syn2 (synapsin II) | 3 | -4.81 | -2.86 | active
Syn2 (synapsin II) | 4 | 3.1 | 0.074 | active
Syn2 (synapsin II) | 5 | -0.644 | 0.074 | inactive
Syn2 (synapsin II) | 6 | -1.13 | 0.074 | inactive
Ldhd (lactate dehydrogenase D) | 1 | 0.988 | -4.65 | inactive
Ldhd (lactate dehydrogenase D) | 2 | -4.65 | -4.65 | active
Ldhd (lactate dehydrogenase D) | 3 | -5.78 | -4.65 | active
Ldhd (lactate dehydrogenase D) | 4 | 1.82 | -1.13 | inactive
Ldhd (lactate dehydrogenase D) | 5 | -1.13 | -1.13 | inactive
Ldhd (lactate dehydrogenase D) | 6 | -2.45 | -1.13 | active
Txnl4a (thioredoxin-like 4A) | 1 | 3.49 | -3.53 | active
Txnl4a (thioredoxin-like 4A) | 2 | -3.53 | -3.53 | active
Txnl4a (thioredoxin-like 4A) | 3 | -4.46 | -3.53 | active
Txnl4a (thioredoxin-like 4A) | 4 | 1.24 | -0.374 | inactive
Txnl4a (thioredoxin-like 4A) | 5 | -0.301 | -0.374 | inactive
Txnl4a (thioredoxin-like 4A) | 6 | -1.84 | -0.374 | inactive
Efna5 (ephrin A5) | 1 | -3.89 | -4.49 | active
Efna5 (ephrin A5) | 2 | -4.69 | -4.49 | active
Efna5 (ephrin A5) | 3 | -4.79 | -4.49 | active
Efna5 (ephrin A5) | 4 | 1.17 | 0.506 | inactive
Efna5 (ephrin A5) | 5 | 0.185 | 0.506 | inactive
Efna5 (ephrin A5) | 6 | 0.0686 | 0.506 | inactive
Zp3r (zona pellucida 3 receptor) | 1 | 0.162 | -1.7 | inactive
Zp3r (zona pellucida 3 receptor) | 2 | -1.7 | -1.7 | inactive
Zp3r (zona pellucida 3 receptor) | 3 | -4.6 | -1.7 | active
Zp3r (zona pellucida 3 receptor) | 4 | 2.5 | 0.0864 | active
Zp3r (zona pellucida 3 receptor) | 5 | -0.256 | 0.0864 | inactive
Zp3r (zona pellucida 3 receptor) | 6 | -1.42 | 0.0864 | inactive

Reprinted from the entries so far, 5 entries:
gene symbol | reagent no. | TNF reporter z-score, mean | gene median z, three same-vendor siRNAs | Call
Moap1 (modulator of apoptosis 1) | 2 | -3.89 | -3.1 | active
Moap1 (modulator of apoptosis 1) | 3 | -3.62 | -3.1 | active
Moap1 (modulator of apoptosis 1) | 4 | 3.06 | 0.917 | active
Moap1 (modulator of apoptosis 1) | 5 | 2.37 | 0.917 | active
Moap1 (modulator of apoptosis 1) | 6 | -0.713 | 0.917 | inactive
